Consider 2 sequences from paper PMC8890623.

Assay in all cases: pull-down (biotinylated oligo, western blot)
In series [1] the target is yTop1Y740Stop (Saccharomyces cerevisiae (YPH45-derived)) (UniProt P04786). As to conditions: Oligos folded in 10 mM Tris pH 7.5, 100 mM KCl, binding in lysis buffer B: 50 mM HEPES pH 7.5, 1 mM EDTA, 300 mM KCl, 10% glycerol, 0.05% NP40, 1 mM PMSF, 1 mM DTT, protein in an extract, residues 1-739, protein details: C-terminal 3XFLAG.
Series [2] concerns the target T1, yTop1 WT (Saccharomyces cerevisiae (YPH45-derived)) (UniProt P04786).
T1 sequence (looked up, limits assumed): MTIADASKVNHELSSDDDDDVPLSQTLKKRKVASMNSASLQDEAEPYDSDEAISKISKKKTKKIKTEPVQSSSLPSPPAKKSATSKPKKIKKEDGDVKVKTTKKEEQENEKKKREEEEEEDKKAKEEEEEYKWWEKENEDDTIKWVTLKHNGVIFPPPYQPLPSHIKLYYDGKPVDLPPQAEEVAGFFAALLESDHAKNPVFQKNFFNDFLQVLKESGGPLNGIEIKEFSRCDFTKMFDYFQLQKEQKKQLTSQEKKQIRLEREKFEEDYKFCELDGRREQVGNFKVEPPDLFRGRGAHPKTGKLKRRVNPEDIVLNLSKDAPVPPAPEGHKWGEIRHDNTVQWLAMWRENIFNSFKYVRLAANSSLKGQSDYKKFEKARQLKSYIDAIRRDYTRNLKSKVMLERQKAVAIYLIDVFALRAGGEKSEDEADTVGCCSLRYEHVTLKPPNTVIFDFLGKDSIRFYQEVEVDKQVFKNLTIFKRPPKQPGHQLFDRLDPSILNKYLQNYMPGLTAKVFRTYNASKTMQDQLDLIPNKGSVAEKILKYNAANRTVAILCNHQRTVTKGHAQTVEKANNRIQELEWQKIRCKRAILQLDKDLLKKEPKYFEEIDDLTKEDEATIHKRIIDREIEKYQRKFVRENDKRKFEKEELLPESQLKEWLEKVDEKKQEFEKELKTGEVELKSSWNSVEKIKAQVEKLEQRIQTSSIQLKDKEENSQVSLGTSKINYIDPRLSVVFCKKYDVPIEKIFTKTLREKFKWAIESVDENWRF
Particulars: Oligos folded in 10 mM Tris pH 7.5, 100 mM KCl, binding in lysis buffer B: 50 mM HEPES pH 7.5, 1 mM EDTA, 300 mM KCl, 10% glycerol, 0.05% NP40, 1 mM PMSF, 1 mM DTT, protein in an extract, protein details: C-terminal 3XFLAG.

Series [3] has as its target T2, yTop1Y727F (Saccharomyces cerevisiae (YPH45-derived)) (UniProt P04786).
T2 sequence (looked up, limits assumed): T1 sequence (looked up, limits assumed) with Y727F
Particulars: Oligos folded in 10 mM Tris pH 7.5, 100 mM KCl, binding in lysis buffer B: 50 mM HEPES pH 7.5, 1 mM EDTA, 300 mM KCl, 10% glycerol, 0.05% NP40, 1 mM PMSF, 1 mM DTT, protein in an extract, protein details: C-terminal 3XFLAG.

Series [4] addresses T3, yTop1S733E (Saccharomyces cerevisiae (YPH45-derived)) (UniProt P04786).
T3 sequence (looked up, limits assumed): T1 sequence (looked up, limits assumed) with S733E
Particulars: Oligos folded in 10 mM Tris pH 7.5, 100 mM KCl; binding in lysis buffer B: 50 mM HEPES pH 7.5, 1 mM EDTA, 300 mM KCl, 10% glycerol, 0.05% NP40, 1 mM PMSF, 1 mM DTT; protein in an extract; protein details: C-terminal 3XFLAG; folded or branched DNA.

Substitutions are numbered along the chain they refer to. The exact form of at least one protein or probe is not confirmed. At least one result comes from cells or an extract, where the contact may be indirect. No signal at the amounts used counts as a negative. For some of these results: Protein sequences can lack the tags named with them.

In the case of “GAGCTGGGGTGAGCTGGGCTGAGCTGGGGTGAGCTGGGCTGAGCT [SμG]”, the binding result in series [1] (folded or branched DNA) is given as “binds”; in series [2] (folded or branched DNA) it was “binds”; in series [3] (folded or branched DNA), “binds”; in series [4] it was “no binding”.
With “GAGCTGAGGTGAGCTGGGCTGAGCTGAGGTGAGCTGGGCTGAGCT [M1]”, the binding result in series [1] (single-stranded DNA), in series [2] (single-stranded DNA) and in series [3] (single-stranded DNA) was “no binding” each time.
